Drawing on paper PMC8927147, “Global profiling of regulatory elements in the histone benzoylation pathway” (Nature Communications, 2022), this text covers binding for one molecule.

Amino acid sequences for entries named in this document (tags omitted). Residues count along the entry.
UniProt Q03330, residues 67-317: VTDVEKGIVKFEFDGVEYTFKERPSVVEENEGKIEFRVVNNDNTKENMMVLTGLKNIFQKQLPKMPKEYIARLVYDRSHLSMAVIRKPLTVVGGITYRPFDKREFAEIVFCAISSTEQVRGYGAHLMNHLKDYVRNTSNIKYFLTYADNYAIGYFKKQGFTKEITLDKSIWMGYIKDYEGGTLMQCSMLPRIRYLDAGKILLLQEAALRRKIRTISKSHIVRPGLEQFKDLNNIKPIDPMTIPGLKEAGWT

The target of the experiment is Gcn5 (residues 67-317) (S. cerevisiae) (UniProt Q03330). The experiment is described as follows: co-purification (Ni-NTA, SEC); Ada2 (1-120) and Gcn5 (67-317) co-expressed in E. coli from pETDuet4; Ni-NTA, on-bead 3C digestion, size-exclusion chromatography.

No constants are given. Whether binding was seen depends on the method and setting. Some results given as binding are weak or reduced against the parent protein; the word gives no strength.

B1: Ada2 (residues 1-120) (domain or fragment, UniProt Q02336 1-120)
chain: MSNKFHCDVCSADCTNRVRVSCAICPEYDLCVPCFSQGSYTGKHRPYHDYRIIETNSYPILCPDWGADEELQLIKGAQTLGLGNWQDIADHIGSRGKEEVKEHYLKYYLESKYYPIPDIT
B1: the binding entry is “binds”.
